Measurements published in paper PMC5909342 (Chemical Science, 2018).

Test: general procedure: Fmoc solid-phase peptide synthesis; TCP resin (2-chlorotrityl chloride polystyrene, 1.3 mmol/g); DIC/HOBt
Settings: whole synthesis, on resin loading, final cyclic peptide, scale of the general procedure 250 mg (0.14-0.25 mmol)
Substance cyclo(–D-Ala–Ala4–) has an isolated yield of 16%. “PEPTIDE1{R.[Gly-t].D.[dF].V}$PEPTIDE1,PEPTIDE1,1:R1-5:R2$$$V2.0” showed an isolated yield of 12%. Work on “PEPTIDE1{R.G.D.F.V}$PEPTIDE1,PEPTIDE1,1:R1-5:R2$$$V2.0” yielded an isolated yield of 15%. With “PEPTIDE1{R.G.[Asp-t].[dF].V}$PEPTIDE1,PEPTIDE1,1:R1-5:R2$$$V2.0” the isolated yield was 14%. In the case of “PEPTIDE1{R.G.D.[Phe-t].V}$PEPTIDE1,PEPTIDE1,1:R1-5:R2$$$V2.0”, the isolated yield is reported as 14%. “PEPTIDE1{R.G.D.[dF].V}$PEPTIDE1,PEPTIDE1,1:R1-5:R2$$$V2.0” gave an isolated yield of 16%. “PEPTIDE1{[Arg-t].G.D.[dF].V}$PEPTIDE1,PEPTIDE1,1:R1-5:R2$$$V2.0” gave an isolated yield of 15%. For “PEPTIDE1{R.G.D.[dPhe-t].V}$PEPTIDE1,PEPTIDE1,1:R1-5:R2$$$V2.0”, the isolated yield was 15%.

Strings that start with PEPTIDE1 are HELM notation: dots part the residues, brackets hold end groups and non-standard residues.
